Test results taken from US9107879B1, “Methods of increasing the cytotoxicity of chemotherapeutic agents with multisubstrate inhibitors of histone, protein-lys, polyamine acetylation, and polyamine metabolism” (Vanderbilt University, priority 2010, dated 2015).
Some of these results come from one statement about several compounds together.

System: H358 lung cancer cells
Test: 96-well MTS cell viability assay
Assay type: cell-based
Settings: repeated exposures, fresh inhibitor daily, inhibitor alone
Protocol: Control cells were left untreated. […] Control cells were left untreated.
Cells were given fresh inhibitor on the first, second, and third days of treatment and viability was measured on the 4th day (i.e. 3 days post start of treatment).
(A) Structure of compound 2a. […] Averages of duplicate samples with standard deviations are shown.
(A) Structure of Spd-3a. (B) Western analysis of histone H3K9-acetylation and total histone H3, measured in control, untreated H358 lung cancer cells “C’ or in H358 cells incubated 12 hours in the presence of 50 μM Spd-2a or Spd-3a. Each lane represents 60 μg cellular protein. (C) [3H]-thymidine incorporation (counts per minute) into DNA of H358 cells during a 6 hour pulse beginning at 42 hours post-start of treatment. Treatments were as follows (bars 1-6 left to right): (1) control: no treatment; (2) CPT alone: 5 nM 18 hours; (3) 3a alone: 50 μM; (4-6) 3a+CPT: CPT (5 nm, 18 hours)+3a at indicated dose. After 18 hours, CPT was removed and medium was replaced with fresh medium containing Spd-3a at the indicated dose. Each bar represents the average of triplicates. (D) 3-day 96-well viability assay of H358 cells grown in the presence of increasing amounts of Spd-2a or Spd-3a, with or without CPT (5 nM 18 hours). […] Each data point represents the average of three wells.
Cells were plated in 96-well plates at 2000 cells per well and treated with the indicated doses of spd-3a. Cell viability was measured by the MTS assay 3 days later.
DLD-1 cells or H358 cells were plated in 96-well plates at 2000 cells per well and treated with the indicated doses of (A) spm-3 or (B) spm-2. (C) Cell viability was measured by the MTS assay 3 days later. Similar experiment using GT41 fibroblasts with spm2 or spm 3. Each assay point represents an average of duplicates.
Control cells received neither 1a nor camptothecin.
After overnight attachment, triplicate wells were treated with increasing concentrations of inhibitor 1a or 1b. Control wells were left untreated. One day later, and again 2 days later, the medium in the wells was removed and replaced with fresh medium containing 1a or 1b.

In the case of CC(C)(COP(=O)(O)OP(=O)(O)OC[C@H]1O[C@@H](n2cnc3c(N)ncnc32)[C@H](O)[C@@H]1OP(=O)(O)O)[C@@H](O)C(=O)NCCC(=O)NCCSCC(=O)NCCCCNCCCN [1b, spermidine [N8]-CoA], the “suppression of 3 day cell viability” value is reported as 60-70%.
